The record followed here is patent publication US20260152543A1 (KRIYA THERAPEUTICS, published 2026).

Amino acid sequences for entries named in this document (tags omitted). A change or cut given only in a name is not applied to a line headed by its entry. Residues count along the entry.
UniProt P01024: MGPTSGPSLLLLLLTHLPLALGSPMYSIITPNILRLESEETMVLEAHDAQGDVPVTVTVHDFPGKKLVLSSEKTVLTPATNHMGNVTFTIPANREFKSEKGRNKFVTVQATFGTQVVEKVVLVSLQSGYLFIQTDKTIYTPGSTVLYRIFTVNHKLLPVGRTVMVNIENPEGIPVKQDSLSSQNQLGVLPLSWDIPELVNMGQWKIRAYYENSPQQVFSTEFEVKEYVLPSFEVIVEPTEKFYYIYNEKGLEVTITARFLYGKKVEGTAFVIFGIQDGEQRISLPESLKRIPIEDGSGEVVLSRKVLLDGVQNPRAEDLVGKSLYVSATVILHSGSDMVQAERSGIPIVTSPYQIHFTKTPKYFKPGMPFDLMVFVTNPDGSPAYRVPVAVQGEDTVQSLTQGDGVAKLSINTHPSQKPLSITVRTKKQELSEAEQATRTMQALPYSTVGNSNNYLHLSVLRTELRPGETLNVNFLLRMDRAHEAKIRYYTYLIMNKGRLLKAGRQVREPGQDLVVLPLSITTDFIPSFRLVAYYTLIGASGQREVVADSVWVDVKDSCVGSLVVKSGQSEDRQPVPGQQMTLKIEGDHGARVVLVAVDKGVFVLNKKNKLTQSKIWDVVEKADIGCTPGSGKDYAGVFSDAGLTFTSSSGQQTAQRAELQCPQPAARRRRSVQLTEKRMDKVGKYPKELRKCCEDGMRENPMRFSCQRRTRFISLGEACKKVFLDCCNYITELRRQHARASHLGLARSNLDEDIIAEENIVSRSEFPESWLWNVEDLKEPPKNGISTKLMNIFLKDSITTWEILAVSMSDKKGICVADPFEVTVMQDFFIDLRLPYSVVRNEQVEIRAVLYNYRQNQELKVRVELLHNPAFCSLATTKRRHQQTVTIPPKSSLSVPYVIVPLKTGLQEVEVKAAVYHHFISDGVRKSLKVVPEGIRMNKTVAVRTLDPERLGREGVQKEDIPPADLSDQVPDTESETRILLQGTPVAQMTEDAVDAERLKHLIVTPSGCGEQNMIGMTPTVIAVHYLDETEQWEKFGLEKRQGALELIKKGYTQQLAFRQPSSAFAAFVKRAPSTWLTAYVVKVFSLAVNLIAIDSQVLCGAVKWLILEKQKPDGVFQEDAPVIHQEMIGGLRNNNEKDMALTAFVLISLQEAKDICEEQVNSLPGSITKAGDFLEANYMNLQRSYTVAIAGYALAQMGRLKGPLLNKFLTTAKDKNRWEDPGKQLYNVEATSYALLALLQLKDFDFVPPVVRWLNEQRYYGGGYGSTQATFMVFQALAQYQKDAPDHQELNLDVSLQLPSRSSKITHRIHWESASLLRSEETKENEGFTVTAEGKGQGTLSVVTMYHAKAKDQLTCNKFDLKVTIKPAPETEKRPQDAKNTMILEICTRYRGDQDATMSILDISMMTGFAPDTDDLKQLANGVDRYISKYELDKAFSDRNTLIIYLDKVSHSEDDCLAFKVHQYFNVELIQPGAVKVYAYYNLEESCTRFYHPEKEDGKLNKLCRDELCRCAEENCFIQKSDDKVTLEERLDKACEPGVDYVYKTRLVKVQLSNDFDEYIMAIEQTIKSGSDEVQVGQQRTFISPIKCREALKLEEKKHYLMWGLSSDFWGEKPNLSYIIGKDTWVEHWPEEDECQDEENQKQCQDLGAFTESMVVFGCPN
UniProt P17927, residues 42-1971: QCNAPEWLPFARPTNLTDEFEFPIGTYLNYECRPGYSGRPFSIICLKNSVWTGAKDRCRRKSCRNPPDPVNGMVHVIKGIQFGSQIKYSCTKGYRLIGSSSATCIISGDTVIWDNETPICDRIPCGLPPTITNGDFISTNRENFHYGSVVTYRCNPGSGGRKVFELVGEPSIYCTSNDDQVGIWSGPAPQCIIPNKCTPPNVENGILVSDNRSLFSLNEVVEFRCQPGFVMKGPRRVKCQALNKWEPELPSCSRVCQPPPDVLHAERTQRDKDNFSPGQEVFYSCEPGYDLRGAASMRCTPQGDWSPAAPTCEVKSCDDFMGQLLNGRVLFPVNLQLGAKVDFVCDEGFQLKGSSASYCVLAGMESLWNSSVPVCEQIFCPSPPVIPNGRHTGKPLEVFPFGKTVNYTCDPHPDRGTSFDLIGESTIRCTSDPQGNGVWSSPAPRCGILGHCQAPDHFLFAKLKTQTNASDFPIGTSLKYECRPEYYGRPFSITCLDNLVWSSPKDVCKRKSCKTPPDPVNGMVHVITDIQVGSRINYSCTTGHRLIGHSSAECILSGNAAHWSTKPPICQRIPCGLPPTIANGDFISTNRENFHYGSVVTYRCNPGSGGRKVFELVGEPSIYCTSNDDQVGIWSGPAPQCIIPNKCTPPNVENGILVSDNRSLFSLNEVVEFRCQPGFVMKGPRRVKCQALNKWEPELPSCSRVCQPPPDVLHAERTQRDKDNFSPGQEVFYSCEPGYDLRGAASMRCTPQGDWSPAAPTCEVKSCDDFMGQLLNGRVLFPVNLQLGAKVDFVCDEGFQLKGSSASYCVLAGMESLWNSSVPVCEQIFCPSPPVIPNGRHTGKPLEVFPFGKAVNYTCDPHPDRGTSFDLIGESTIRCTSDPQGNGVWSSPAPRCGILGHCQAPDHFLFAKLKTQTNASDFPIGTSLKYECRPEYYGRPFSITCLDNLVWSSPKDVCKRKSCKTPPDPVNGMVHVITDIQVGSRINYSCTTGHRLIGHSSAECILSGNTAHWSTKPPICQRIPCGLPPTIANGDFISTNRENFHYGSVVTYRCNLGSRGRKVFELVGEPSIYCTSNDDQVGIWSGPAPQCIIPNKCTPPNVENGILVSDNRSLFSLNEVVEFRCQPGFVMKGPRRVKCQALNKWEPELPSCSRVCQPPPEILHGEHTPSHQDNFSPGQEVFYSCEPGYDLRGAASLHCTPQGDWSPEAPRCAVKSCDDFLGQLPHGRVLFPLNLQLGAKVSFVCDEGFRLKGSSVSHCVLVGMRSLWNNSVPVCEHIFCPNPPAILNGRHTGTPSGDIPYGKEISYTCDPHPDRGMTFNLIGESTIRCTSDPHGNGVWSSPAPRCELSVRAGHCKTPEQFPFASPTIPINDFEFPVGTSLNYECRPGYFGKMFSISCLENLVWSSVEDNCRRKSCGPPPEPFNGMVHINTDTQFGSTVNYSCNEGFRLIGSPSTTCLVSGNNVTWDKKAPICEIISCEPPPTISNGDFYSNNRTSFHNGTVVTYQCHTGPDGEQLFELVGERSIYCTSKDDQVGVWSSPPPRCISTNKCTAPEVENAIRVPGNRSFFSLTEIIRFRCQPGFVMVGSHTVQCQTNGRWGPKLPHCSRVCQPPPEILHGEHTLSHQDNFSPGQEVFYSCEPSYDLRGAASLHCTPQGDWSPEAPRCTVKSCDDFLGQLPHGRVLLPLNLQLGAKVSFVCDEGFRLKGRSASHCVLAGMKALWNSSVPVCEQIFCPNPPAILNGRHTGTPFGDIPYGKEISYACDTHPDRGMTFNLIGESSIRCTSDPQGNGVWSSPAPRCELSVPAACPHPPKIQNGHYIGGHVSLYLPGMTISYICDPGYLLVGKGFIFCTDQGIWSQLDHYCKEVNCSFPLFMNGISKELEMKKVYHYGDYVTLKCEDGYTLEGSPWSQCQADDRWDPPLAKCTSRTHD

Results are given in words; binding and its absence hold for the method and conditions named. Binding can be weak; no strength is given.

The assay concerns the target C3b (Complement Tech) (UniProt P01024). Briefly: SPR (Biacore 8K), His-tagged CR1 captured as ligand on a CM5 chip through anti-His antibody, C3b injected as analyte, 150 s association, 300 s dissociation. Background: In SPR one partner is held on a chip, and binding of the other changes the refractive index at the surface.

As for “Recombinant His-tagged human CR1 (R&D Systems) (from UniProt P17927 42-1971) (receptor)”, the binding entry is on record as “binds”.
